From article PMC7817834 come the findings set out here.

No constants are given. Whether binding was seen depends on the method and setting. In cells and extracts the contact can be indirect. A result given as binding can be weak or reduced; the word gives no strength.

The target in the assay is T1, ANXA1 (stably expressed in ANXA1/293T cells) (human) (UniProt P04083).
T1 sequence: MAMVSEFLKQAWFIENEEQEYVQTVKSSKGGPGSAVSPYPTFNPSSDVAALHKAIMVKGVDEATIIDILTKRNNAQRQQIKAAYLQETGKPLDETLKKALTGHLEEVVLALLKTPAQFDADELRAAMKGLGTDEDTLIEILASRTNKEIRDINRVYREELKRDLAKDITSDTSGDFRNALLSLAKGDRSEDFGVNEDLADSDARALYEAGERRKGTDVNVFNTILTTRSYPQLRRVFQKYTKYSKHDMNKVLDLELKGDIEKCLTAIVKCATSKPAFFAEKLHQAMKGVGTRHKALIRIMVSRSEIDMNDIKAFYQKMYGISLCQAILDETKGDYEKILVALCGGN
Put plainly: co-IP; lysates of ANXA1/293T cells transfected with full-length or domain-deleted KIAA1199-FLAG, incubated with anti-FLAG and anti-ANXA1 antibody, respectively; Protein A/G agarose beads; western blotting.

Turning to “ΔC1-KIAA1199 (human) (domain or fragment)”, the binding entry was “binds”. As to “ΔC2-KIAA1199 (human) (domain or fragment)”, the binding entry is recorded as “binds”. Consider “ΔC3-KIAA1199 (human) (domain or fragment)”, for which the binding result is listed as “binds”. For the substance “ΔN2-KIAA1199 (human) (domain or fragment)”, the binding result is given as “no binding”. For the substance “ΔN3-KIAA1199 (human) (domain or fragment)”, the binding entry was “no binding”.
